Data: article PMC10801253
These are yes or no findings as the source states them, for the method shown. Binding seen in cells or lysates may run through a third protein. A yes stands for co-enrichment or nearness to the bait. Other partners may have been found.

Sequences of proteins named here, by UniProt entry; tags and fusion partners are left off.
UniProt P40337: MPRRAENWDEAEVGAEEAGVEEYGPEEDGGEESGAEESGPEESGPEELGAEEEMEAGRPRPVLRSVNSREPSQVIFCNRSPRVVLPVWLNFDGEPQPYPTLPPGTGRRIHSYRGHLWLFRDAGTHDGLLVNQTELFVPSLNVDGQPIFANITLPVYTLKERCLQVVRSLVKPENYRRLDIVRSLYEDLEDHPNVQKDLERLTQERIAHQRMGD

Molecular target: T1, BioID2-FOXA2 (human) (UniProt Q9Y261)
T1 sequence: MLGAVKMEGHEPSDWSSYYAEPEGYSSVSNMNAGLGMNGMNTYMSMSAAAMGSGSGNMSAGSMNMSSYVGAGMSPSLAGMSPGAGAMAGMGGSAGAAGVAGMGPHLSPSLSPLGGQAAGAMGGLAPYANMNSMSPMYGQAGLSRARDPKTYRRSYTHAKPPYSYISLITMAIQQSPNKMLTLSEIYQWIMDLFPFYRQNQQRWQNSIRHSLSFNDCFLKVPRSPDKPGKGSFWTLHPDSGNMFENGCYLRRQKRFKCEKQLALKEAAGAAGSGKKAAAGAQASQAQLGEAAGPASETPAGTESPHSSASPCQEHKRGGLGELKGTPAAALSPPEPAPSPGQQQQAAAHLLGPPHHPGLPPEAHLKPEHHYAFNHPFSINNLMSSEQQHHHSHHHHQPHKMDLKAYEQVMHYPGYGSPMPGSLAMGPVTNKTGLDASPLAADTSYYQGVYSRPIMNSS
Experiment: proximity labelling; BioID2-FOXA2 or BioID2 alone transfected into ACHN cells; 50 μM biotin for 18 h; lysis in 50 mM Tris-HCl pH 7.4, 500 mM NaCl, 0.4% SDS; biotinylated proteins captured on streptavidin agarose, washed with 8 M urea, analysed by LC-MS/MS

With “VHL (von Hippel-Lindau) (from UniProt P40337 1-213)” as the substance, how does the binding read?
The binding was “binds”.
